This assay deals with filamin-C (human (endogenous in human cardiac myocytes)) (UniProt Q14315). Description: co-IP; Protein G magnetic beads with anti-filamin-C antibody (or isotype IgG), immunoblot for ISG15; human cardiac myocytes with ISG15 siRNA or negative control siRNA for 6 hours, then 500 IU/mL IFN-β for 48 hours.

Protein sequences, listed by entry. Tags and fused reporters are not part of them. Residues count along the entry.
UniProt Q14315: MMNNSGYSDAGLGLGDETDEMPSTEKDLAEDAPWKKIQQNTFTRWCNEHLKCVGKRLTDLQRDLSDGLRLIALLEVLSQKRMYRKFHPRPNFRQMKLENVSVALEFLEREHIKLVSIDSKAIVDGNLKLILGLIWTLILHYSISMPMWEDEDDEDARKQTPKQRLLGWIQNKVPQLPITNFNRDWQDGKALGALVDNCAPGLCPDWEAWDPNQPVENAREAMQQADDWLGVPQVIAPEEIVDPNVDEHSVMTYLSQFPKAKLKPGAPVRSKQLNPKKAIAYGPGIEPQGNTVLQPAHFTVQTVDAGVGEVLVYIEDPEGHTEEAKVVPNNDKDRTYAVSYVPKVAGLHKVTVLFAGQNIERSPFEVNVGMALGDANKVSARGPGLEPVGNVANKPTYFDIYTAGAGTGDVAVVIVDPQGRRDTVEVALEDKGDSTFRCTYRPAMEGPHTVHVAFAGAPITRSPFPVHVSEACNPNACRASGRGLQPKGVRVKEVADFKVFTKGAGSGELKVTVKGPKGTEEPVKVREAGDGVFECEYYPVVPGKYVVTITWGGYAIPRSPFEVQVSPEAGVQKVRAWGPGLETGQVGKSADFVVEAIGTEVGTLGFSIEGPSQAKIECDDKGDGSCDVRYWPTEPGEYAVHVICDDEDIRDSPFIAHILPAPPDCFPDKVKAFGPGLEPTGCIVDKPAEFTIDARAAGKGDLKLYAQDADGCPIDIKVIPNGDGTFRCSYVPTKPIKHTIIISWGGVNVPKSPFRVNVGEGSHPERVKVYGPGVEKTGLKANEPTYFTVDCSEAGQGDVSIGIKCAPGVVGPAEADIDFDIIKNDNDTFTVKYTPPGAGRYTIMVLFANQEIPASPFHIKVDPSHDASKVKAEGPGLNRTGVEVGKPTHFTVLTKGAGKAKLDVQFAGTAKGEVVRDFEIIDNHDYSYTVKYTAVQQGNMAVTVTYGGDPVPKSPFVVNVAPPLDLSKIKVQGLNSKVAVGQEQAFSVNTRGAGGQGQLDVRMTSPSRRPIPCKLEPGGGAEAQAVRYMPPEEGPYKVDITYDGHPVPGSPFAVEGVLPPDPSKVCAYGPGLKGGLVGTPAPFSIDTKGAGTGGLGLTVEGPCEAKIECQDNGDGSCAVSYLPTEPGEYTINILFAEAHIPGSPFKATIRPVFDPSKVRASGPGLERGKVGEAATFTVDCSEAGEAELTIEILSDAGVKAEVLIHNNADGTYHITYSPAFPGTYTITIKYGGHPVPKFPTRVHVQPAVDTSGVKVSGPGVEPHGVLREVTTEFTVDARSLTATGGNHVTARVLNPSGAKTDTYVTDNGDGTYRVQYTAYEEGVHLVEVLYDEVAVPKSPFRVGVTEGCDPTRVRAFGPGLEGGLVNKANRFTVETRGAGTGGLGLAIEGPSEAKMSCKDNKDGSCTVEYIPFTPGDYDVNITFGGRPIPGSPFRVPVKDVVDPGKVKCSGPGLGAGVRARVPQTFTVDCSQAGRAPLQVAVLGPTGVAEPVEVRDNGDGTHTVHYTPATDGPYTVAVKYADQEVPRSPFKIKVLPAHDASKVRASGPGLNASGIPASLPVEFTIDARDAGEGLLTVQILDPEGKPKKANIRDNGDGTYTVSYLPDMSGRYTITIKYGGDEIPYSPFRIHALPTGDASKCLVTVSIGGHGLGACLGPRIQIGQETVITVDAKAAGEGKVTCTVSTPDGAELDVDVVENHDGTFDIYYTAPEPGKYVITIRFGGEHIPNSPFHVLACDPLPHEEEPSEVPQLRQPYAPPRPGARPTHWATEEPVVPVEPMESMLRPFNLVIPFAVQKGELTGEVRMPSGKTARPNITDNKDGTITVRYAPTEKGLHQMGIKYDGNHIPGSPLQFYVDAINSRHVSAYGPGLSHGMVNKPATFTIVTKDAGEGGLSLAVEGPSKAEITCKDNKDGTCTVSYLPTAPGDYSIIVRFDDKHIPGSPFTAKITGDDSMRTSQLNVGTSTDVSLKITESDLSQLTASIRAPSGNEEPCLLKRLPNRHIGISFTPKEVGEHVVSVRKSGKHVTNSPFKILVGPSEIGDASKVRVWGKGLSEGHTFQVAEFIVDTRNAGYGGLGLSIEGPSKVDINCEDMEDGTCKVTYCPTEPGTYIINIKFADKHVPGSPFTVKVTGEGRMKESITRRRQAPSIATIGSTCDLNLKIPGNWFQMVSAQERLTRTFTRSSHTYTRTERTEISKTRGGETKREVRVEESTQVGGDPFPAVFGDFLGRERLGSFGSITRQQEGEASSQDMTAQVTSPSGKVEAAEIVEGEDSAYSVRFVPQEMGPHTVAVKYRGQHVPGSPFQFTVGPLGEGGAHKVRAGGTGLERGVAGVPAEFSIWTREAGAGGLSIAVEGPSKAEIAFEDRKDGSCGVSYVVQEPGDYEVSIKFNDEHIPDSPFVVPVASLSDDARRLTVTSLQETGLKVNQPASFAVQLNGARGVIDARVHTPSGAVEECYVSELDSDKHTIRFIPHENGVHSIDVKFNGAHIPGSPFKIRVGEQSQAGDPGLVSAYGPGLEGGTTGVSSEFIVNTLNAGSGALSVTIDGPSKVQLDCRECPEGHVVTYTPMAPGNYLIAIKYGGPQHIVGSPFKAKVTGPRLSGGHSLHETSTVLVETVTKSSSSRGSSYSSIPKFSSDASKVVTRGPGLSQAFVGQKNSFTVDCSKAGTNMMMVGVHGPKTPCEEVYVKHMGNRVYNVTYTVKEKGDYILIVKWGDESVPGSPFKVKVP
UniProt P05161, residues 1-157: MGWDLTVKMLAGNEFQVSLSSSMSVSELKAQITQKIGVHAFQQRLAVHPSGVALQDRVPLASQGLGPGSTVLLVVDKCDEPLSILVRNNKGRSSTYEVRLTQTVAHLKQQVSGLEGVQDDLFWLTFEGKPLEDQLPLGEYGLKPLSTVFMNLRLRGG

Results are given in words; binding and its absence hold for the method and conditions named. In cells and extracts the contact can be indirect. Some results given as binding are weak or reduced against the parent protein; the word gives no strength.

Take “IFN-stimulated gene 15 (ISG15 ubiquitin like modifier) (from UniProt P05161 1-157)”: the binding entry was “binds”.

These data come from paper PMC10145941.
